Test results: the supplement of paper PMC10735217
This is one part of the list. This data set is noisy: repeats of one test often differ as much as different tests do.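 In a drug-repurposing library screen, luminescence reads luciferase driven by eight TEAD-binding elements, stably integrated into human kidney-derived cells. Compounds scoring over five robust Z scores above the plate mean are called hits.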

Test system: HEK293A TEAD-LUC reporter
Experiment: TEAD-luciferase reporter activity (YAP activation), robust Z score vs plate; higher = stronger YAP/TEAD activation
Details: 24 h

Row | SMILES | TEAD-luciferase reporter activity (compound concentration: 200 nM) | TEAD-luciferase reporter activity (compound concentration: 2 uM) | TEAD-luciferase reporter activity (compound concentration: 10 uM)
1 | O=C([O-])CC/C=C\CC[C@H]1[C@@H](OCc2ccc(-c3ccccc3)cc2)CC(=O)[C@@H]1N1CCOCC1 | inactive: -1.07 | inactive: -0.818 | inactive: 0.7
2 | COC(=O)[C@@H](Cc1cnc[nH]1)NC(=O)[C@@H](Cc1ccccc1)NC(=O)[C@@H](Cc1ccccc1)NC(C)=O [Triletide] | inactive: -1.5 | inactive: 0.525 | inactive: 0.477
3 | NCCCC[C@@H]1NC(=O)[C@H](CCC(=O)O)NC(=O)c2cc([N+](=O)[O-])ccc2OCC[C@@H](C(=O)NCC(=O)O)NC1=O [Tavilermide] | inactive: -1.18 | inactive: -0.306 | inactive: -0.556
4 | Cc1cc(C)cc(-c2ccc(CN3CCCC3C(=O)N3CCCC(C)C3)cc2)c1 (centres undefined) | inactive: -1.95 |  | inactive: 1.69
5 | CCCCOc1ccc(OCC(O)CNCCNc2cc(=O)n(C)c(=O)n2C)cc1 (centres undefined) | inactive: -0.389 | inactive: -1.94 | inactive: -0.234
6 | CCC(=O)C1c2cccc(O)c2C(=O)c2c(O)cccc21 | inactive: -0.734 | inactive: -0.253 | inactive: 4.38
7 | CC1CCCN(CC(C)NC(=O)c2n[nH]c3ccccc23)C1 (centres undefined) | inactive: -1.14 | inactive: -1.95 | inactive: 4.98
8 | Cc1cccc(NS(=O)(=O)c2ccc(Cl)c(C(=O)N3CCN(CCN4CCCC4)CC3)c2)c1 | inactive: 2.36 | inactive: -1.91 | inactive: 0.825
9 | CCCc1nc2c(n1Cc1ccc(-c3ccccc3-c3nnn[nH]3)cc1)C(=O)CCCC2 | inactive: -0.785 | inactive: 0.582 | inactive: 0.312
10 | COc1ccc(C2CC(c3ccncc3)C(C)(C)N2)cc1 (centres undefined) | inactive: -0.795 | inactive: -0.0151 | inactive: 2.59
11 | O=C(NCC1CC1)c1ccc2nccn2c1 | inactive: 0.286 |  | inactive: -1.76
12 | NCCNc1nonc1/C(=N/O)Nc1ccc(F)c(Br)c1 | inactive: 0.0111 | inactive: -1.72 | inactive: -0.531
13 | O=C([O-])CC(O)(C(=O)[O-])C(O)C(=O)[O-] (centres undefined) [Garcinia acid] | inactive: -1.09 | inactive: 1.37 | inactive: -1.54
14 | CN(C(=O)CO)c1c(I)c(C(=O)NCC(O)CO)c(I)c(C(=O)NCC(O)CO)c1I (centres undefined) [iomeprol] | inactive: 0.161 | inactive: 0.736 | inactive: -0.826
15 | CCNC(=O)[C@H]1C[C@@](F)(c2ccc(CN3CCCC3)c(F)c2)C1 | inactive: -0.0263 | inactive: -1.23 | inactive: 2.41
16 | CC(=O)[C@@]1(C)CC[C@H]2[C@@H]3C=C(C)C4=CC(=O)CC[C@]4(C)[C@H]3CC[C@@]21C | inactive: 1.19 | inactive: 1.94 | inactive: 2.3
17 | CCCC(=O)O[C@]1(C(=O)COC(C)=O)CC[C@H]2[C@@H]3C[C@H](F)C4=CC(=O)C=C[C@]4(C)[C@@]3(F)[C@@H](O)C[C@@]21C [difluprednate] | inactive: -1.44 | inactive: 3.03 | inactive: 1.9

In the list so far, these contain fluorine.
Row | SMILES | TEAD-luciferase reporter activity (compound concentration: 200 nM) | TEAD-luciferase reporter activity (compound concentration: 2 uM) | TEAD-luciferase reporter activity (compound concentration: 10 uM)
12 | NCCNc1nonc1/C(=N/O)Nc1ccc(F)c(Br)c1 | inactive: 0.0111 | inactive: -1.72 | inactive: -0.531
15 | CCNC(=O)[C@H]1C[C@@](F)(c2ccc(CN3CCCC3)c(F)c2)C1 | inactive: -0.0263 | inactive: -1.23 | inactive: 2.41
17 | CCCC(=O)O[C@]1(C(=O)COC(C)=O)CC[C@H]2[C@@H]3C[C@H](F)C4=CC(=O)C=C[C@]4(C)[C@@]3(F)[C@@H](O)C[C@@]21C [difluprednate] | inactive: -1.44 | inactive: 3.03 | inactive: 1.9
